In patent US11555180B2, “Methods and apparatuses for patient-derived micro-organospheres” (Xilis, Inc., priority 2019, dated 2023):
At least one compound was matched to its structure with a doubt left.

System: tumor Micro-Organospheres
Experiment: drug screen on Patient-Derived Micro-Organospheres formed from a patient tumor biopsy
Assay type: cell-based
Details: Example 4, FIG. 24, single tumor biopsy
Text: The Patient-Derived Micro-Organospheres described herein may be used in a variety of different assays, and in particular may be used to determine drug formulation effects, including toxicity, on normal and/or abnormal (e.g., cancerous) tissue. For example, drug screening may include applying Micro-Organospheres into all or some wells of multi-well (e.g., a 96-well) plate. Alternatively custom plates may be used (e.g., a 10,000 micro-well array may be formed of a 100 × 100 wells). The Micro-Organospheres (e.g., gel droplets) may be applied into, or in some variations onto the multiple microwell arrays and incubated with culture medium. The Micro-Organospheres may be cultured over the course of 3-5 days. In some variations, on day 5, the wells (e.g., micro-reactors) may then be dosed with drug compounds, e.g., based on a set of FDA-approved anticancer drugs, to examine the effects of the drug panel. […]
The workflow shown in FIGS. 17A-17E may enable an integrated device to be used for growing, dosing and/or reviewing the Micro-Organospheres. […] Their response to drug treatments, such as IC-50, cytotoxicity, and growth curves, may be measured to identify effective therapeutics against the patient's tumor.

SMILES: Cc1ccc(Nc2nccc(N(C)c3ccc4c(C)n(C)nc4c3)n2)cc1S(N)(=O)=O [Pazopanib]
- toxicity in a panel of 27 drugs: largest toxicity
